Experimental data: PubChem BioAssay AID504786 (Drosophila RNAi Screening Center, 2011)

Screen: 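Knock-downs reducing HIF reporter induction by the iron chelator DFO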 (primary screen)
System: Drosophila S2 cells with a stable HIF luciferase reporter
Reagents: long dsRNA against Drosophila genes, about 0.2 µg dsRNA per well of a 384-well plate
Duration: three days of knock-down, then 20 h of DFO before reading
Conditions: desferrioxamine (DFO) at 100 µM, an iron chelator that mimics hypoxia, for 20 h
Measurement: 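HIF reporter luminescence in cells given 100 µM DFO for 20 h, using the mouse ldh-a hypoxia-response element, scored as per-plate z-scores; higher means greater loss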
Direction: z-score: higher = stronger loss of HIF reporter signal
In all, the deposit lists about 21,000 reagents; shown is a random part of those with a known target gene and a result. 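Primary screen; positive scores mean lost reporter signal, so the sign may be inverted from the usual convention.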 Names joined by + are all predicted targets of the reagent. Further read-outs or replicates are left out here. No sequences are given here.

no.	target	DRSC id	z-score, replicate 1	z-score, replicate 2	z-score, replicate 3
1	RpL7 (Ribosomal protein L7)	DRSC03417	8	6.4	
2	Diedel3 (Diedel 3)	DRSC19544	-0.2	0.2	
3	CycC (Cyclin C)	DRSC16619	0	0.4	
4	t-cup (tetleys-cup)	DRSC01254	0.3	0.2	
5	CG33489	DRSC10588	-0.3	-0.5	
6	CG11373	DRSC12170	-0.1	-0.6	
7	ste24a (prenyl protease type I)	DRSC07314	0.4	-0.3	
8	Fit1 (Fermitin 1)	DRSC08450	-0.3	-0.4	
9	CG12531	DRSC19466	-0.2	0	
10	SdhCL (Succinate dehydrogenase, subunit C-like)	DRSC16078	-0.4	0.5	
11	l(2)k09913 (lethal (2) k09913)	DRSC04699	-0.1	-0.5	
12	CG11986	DRSC14461	-0.4	-0.4	
13	NK7.1	DRSC16755	-0.2	-0.2	
14	M6	DRSC11869	-0.3	-0.3	
15	KaiR1D (Kainate-type ionotropic glutamate receptor subunit 1D)	DRSC15516	0.3	-0.3	
16	CG31245	DRSC15498	-0.8	-0.1	
17	wuc (Wake-up-call)	DRSC06152	-0.2	0	
18	Obp85a (Odorant-binding protein 85a)	DRSC14362	-0.3	0	
19	epsilonCOP (Coat Protein (coatomer) epsilon)	DRSC02003	-0.4	-0.4	
20	CG3581	DRSC15499	-0.8	0	
21	pHCl-2 (pH-sensitive chloride channel 2)	DRSC14306	0.1	0.9	
22	CG12486 (retired record)	DRSC09888	-0.4	-0.3	
23	CG12128 + CG1407	DRSC06446	-0.4	-0.5	
24	Shmt (Serine hydroxymethyl transferase)	DRSC18264	-0.2	-0.2	
25	CG31782 (retired record)	DRSC01554	-0.1	0.7	
26	CG31782 (retired record)	DRSC01556	-0.4	-0.7	
27	CG2887	DRSC18235	-0.4	-0.7	
28	mRpL33 (mitochondrial ribosomal protein L33)	DRSC18319	0.8	0.1	
29	Grl65a (Gustatory receptor-like 65a)	DRSC08837	-0.3	0.1	
30	RpS18 (Ribosomal protein S18)	DRSC07540	7.8	5.1	
31	Dhc93AB (Dynein heavy chain at 93AB)	DRSC16644	-0.1	-0.5	
32	RpL4 (Ribosomal protein L4)	DRSC16833	6.6	5.8	
33	Blm (Bloom syndrome helicase)	DRSC16911	0	-0.6	
34	mms4 (Methyl methanesulfonate sensitivity 4)	DRSC06249	-0.2	-0.3	
35	CG11927	DRSC00337	-0.4	0	
36	PVRAP (PVR adaptor protein)	DRSC09966	0.3	-0.4	
37	PVRAP (PVR adaptor protein)	DRSC10577	0.2	0.1	
38	CG31404	DRSC15497	-1.1	-0.7	
39	Sec24CD (Secretory 24CD)	DRSC00300	-0.5	-0.4	
40	CG10283	DRSC02034	0	-0.1	
41	Taldo (Transaldolase)	DRSC04320	-0.3	-0.4	
42	Pif1A + Pif1B	DRSC14142	0.2	-0.8	
43	Pif1A + Pif1B	DRSC14380	-0.4	-0.6	
44	Pif1A + Pif1B	DRSC14381	0.1	-0.5	
45	Or35a (Odorant receptor 35a)	DRSC03389	-0.2	-0.3	
46	CG13838	DRSC14688	-0.6	-0.2	-0.6
47	CG11912	DRSC00332	-0.3	-0.3	
48	Dpit47 (DNA polymerase interacting tpr containing protein of 47kD)	DRSC04985	0	0	
49	CG13326	DRSC06363	-0.2	0	
50	CG40006	DRSC03787	0.5	0.6	
51	CG40006	DRSC03809	0.1	-0.2	
52	CG40006	DRSC03814	0.1	0.2	
53	CG40006	DRSC03817	0	-0.1	
54	Inos (myo-inositol-1-phosphate synthase)	DRSC07655	-0.2	-0.5	
55	CG15824	DRSC00473	-0.3	-0.2	
56	nerfin-1 (nervous fingers 1)	DRSC08729	-0.2	-0.1	
57	Lztr1 (Leucine zipper like transcription regulator 1)	DRSC18176	-0.4	-0.6	
58	Lztr1 (Leucine zipper like transcription regulator 1)	DRSC18647	-0.4	-0.9	
59	ND-18 (NADH dehydrogenase (ubiquinone) 18 kDa subunit)	DRSC19441	-0.2	0.4	
60	icln	DRSC07630	0	-0.1	
61	ng2 (new glue 2)	DRSC18803	-0.3	-0.3	
62	mRpL42 (mitochondrial ribosomal protein L42)	DRSC06235	0.7	1	
63	CG2617	DRSC02712	-0.3	-0.4	
64	CG9396	DRSC16487	-0.3	-0.5	
65	cass (cassowary)	DRSC01850	0.3	0.8	
66	Ogg1 (8-oxoguanine DNA glycosylase)	DRSC17738	-0.3	-0.3	
67	CG33012	DRSC06287	-0.2	0	
68	CG33012	DRSC06288	-0.4	-0.2	
69	slmb (supernumerary limbs)	DRSC17056	-0.5	-0.9	
70	CG7542	DRSC10868	-0.2	-0.5	
71	boi	DRSC18425	-0.2	-0.8	
72	boi	DRSC18598	-0.2	0	
73	CG15539	DRSC15075	-0.3	-0.3	
74	CG8010	DRSC20072	-0.1	0.4	
75	enc (encore)	DRSC08716	-0.1	-0.5	
76	CG13481	DRSC10023	-0.2	-0.2	
77	escl	DRSC02828	-0.3	-0.2	
78	FeCH (Ferrochelatase)	DRSC16948	0.1	-0.6	
79	Ufc1 (Ubiquitin-fold modifier conjugating enzyme 1)	DRSC07156	-0.2	-0.3	
80	CG33099	DRSC15774	-0.3	-0.3	
81	CG7840	DRSC03075	-0.3	-0.1	
82	dib (disembodied)	DRSC08711	-0.3	-0.5	
83	CG18748	DRSC15385	-0.5	-0.6	
84	CG6425	DRSC16038	-0.3	0	
85	CG8173	DRSC20088	-0.3	-0.1	
86	CG7916	DRSC01901	0	-0.3	
87	Dic4	DRSC10317	-0.1	0.2	
88	Acp62F (Accessory gland protein 62F)	DRSC08136	-0.3	-0.3	
89	Plc21C (Phospholipase C at 21C)	DRSC00773	-0.3	-0.3	
90	CG14195	DRSC19550	-0.3	-0.1	
91	Ir56a (Ionotropic receptor 56a)	DRSC05776	-0.4	-0.2	
92	CG1750	DRSC15240	0.1	-0.1	
93	CG34183	DRSC01099	0	0.2	
94	Wdr81 (WD repeat domain 81)	DRSC02985	-0.1	-0.4	
95	blw (bellwether)	DRSC04675	1	1.4	
96	Pdk1 (Phosphoinositide-dependent kinase 1)	DRSC08682	3	1.5	
97	gw (gawky)	DRSC17135	3.9	1.8	
98	gw (gawky)	DRSC17160	4.8	2.8	
99	Msr-110	DRSC11227	0.1	0.6	
100	CG8372	DRSC03086	-0.2	-0.5	
101	Lcp9 (Larval cuticle protein 9)	DRSC04287	0.3	0	
102	pho (pleiohomeotic)	DRSC17219	-0.3	0.2	
103	CG18585	DRSC02678	-0.3	-0.4	
104	CG5056	DRSC02808	-0.2	-0.5	
105	CG30398	DRSC03891	-0.6	-0.2	
106	TORIP (Torsin interacting protein)	DRSC10104	-0.3	-0.7	

A few values from above:
Under “z-score, replicate 2”, ng2 (new glue 2) [DRSC18803] has -0.3
Plc21C (Phospholipase C at 21C) [DRSC00773], z-score, replicate 2 → -0.3
Entry for dib (disembodied) [DRSC08711] under “z-score, replicate 1”: -0.3
cass (cassowary) [DRSC01850], z-score, replicate 1 → 0.3
Result of CG2617 [DRSC02712] in “z-score, replicate 2”: -0.4
